The values below are quoted from earlier work in patent US8106214B2, “2-imino-4-(thio) oxo-5-polycyclovinylazolines for use as PI3 kinase inhibitors” (Merck Serono SA, priority 2003, dated 2012).

Amino acid sequences for entries named in this document (tags omitted).
UniProt P68400, whole entry: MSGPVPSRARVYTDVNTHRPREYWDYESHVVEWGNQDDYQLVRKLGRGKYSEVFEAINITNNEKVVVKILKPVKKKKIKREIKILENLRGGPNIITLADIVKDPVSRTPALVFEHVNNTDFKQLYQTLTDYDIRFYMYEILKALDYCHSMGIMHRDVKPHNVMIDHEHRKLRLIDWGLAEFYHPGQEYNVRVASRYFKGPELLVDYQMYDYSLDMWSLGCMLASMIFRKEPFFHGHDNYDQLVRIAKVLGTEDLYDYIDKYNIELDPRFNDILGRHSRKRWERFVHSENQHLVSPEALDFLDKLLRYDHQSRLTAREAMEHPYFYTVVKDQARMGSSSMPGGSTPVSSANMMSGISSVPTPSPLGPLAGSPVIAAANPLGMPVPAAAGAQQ

Usually IC50 stands for the point on the concentration scale where inhibition reaches its midpoint.

The series has as its target CK2 protein kinase (Homo sapiens, UniProt P68400). As to conditions: cited from earlier work.

Regarding `O=c1cc(N2CCOCC2)oc2c(-c3ccccc3)cccc12` [LY294002], the IC50 is 5 to 10 µM.
